From patent US20180110770A1, “FERROPTOSIS AND GLUTAMINOLYSIS INHIBITORS AND METHODS OF TREATMENT” (MEMORIAL SLOAN-KETTERING CANCER CENTER, priority 2015, published 2018)
At least one structure is not confirmed: it was looked up by name or label, or the drawing left a doubt.

Experiments:
MEFs [1] = experiment: Serum-dependent necrosis (serum-induced cell death) upon amino acid or cystine starvation; type: cell-based, mouse; conditions: total amino acid starvation in the presence of FBS, 12 hrs, GPNA 5 mM, 968 20 μM, AOA 0.5 mM, BPTES 10 μM, DFO 80 μM, CPX 10 μM, BIP 100 μM, NAC 0.2 mM, Trolox 0.2 mM, cysteine/cystine 0.2 mM, U0126 and PD0325901 10 μM
Description: To induce cell death, 80%-confluent cells were washed with PBS twice, and then cultured in amino acid-free medium, with specific factors added as indicated in individual experiments. Cell death was analyzed by propidium iodide (PI) staining coupled with microscopy or flow cytometry. Alternatively, cell viability was determined using the CellTiter-Glo luminescent Cell Viability Assay (Promega). In assays using WT MEFs, viability was calculated by normalizing ATP levels to cells treated with amino acid-starvation in the presence of 10% (v/v) diFBS, while in assays using bax/bak-DKO MEFs, ATP levels were normalized to cells treated with amino acid and FBS double starvation.

MEFs [2] = experiment: Erastin-induced ferroptosis; type: cell-based, mouse; conditions: erastin 1 μM, 12 hrs, DFO 80 μM, CPX 10 μM, 968 20 μM, AOA 0.5 mM, U0126 and PD0325901 10 μM
[3] = tested on: hearts isolated from wild-type mice; experiment: Ischemia-reperfusion (I/R) analysis using isolated hearts (ex vivo heart model); type: in vivo; conditions: ex vivo mouse heart, perfusates collected during 60 min reperfusion; DFO 80 μM, 968 25 μM
Description: Male C57BL/6J mice weighing 25-30 g at age 12-14 weeks were used in all experiments and maintained in a temperature-controlled room with alternating 12:12-h light-dark cycles. Experiments were performed using an isovolumic isolated heart preparation as published and modified for the use in mice hearts ([…] et al., 2009; Hwang et al., 2004). Hearts from 12-14 weeks aged wild-type mice were isolated, and retrograde perfused at 37° C. in a non-recirculating mode through the aorta at a rate of 2.5 ml/min. Hearts were perfused with modified Krebs-Henseleit (KH) buffer (118 mM NaCl, 4.7 mM KCl, 2.5 mM CaCl2, 1.2 mM MgCl2, 25 mM NaHCO3, 5 mM glucose, 0.4 mM palmitate, 0.2 mM glutamine, 10 μg/ml human recombinant transferrin, 0.4 mM BSA, and 70 mU/1 insulin). Left ventricular developed pressure (LVDP) was measured using a latex balloon in the left ventricle. LVDP and coronary perfusion pressure were monitored continuously on a four-channel Gould recorder. Hearts were perfused either with KH buffer containing vehicle (DMSO) or the Compounds throughout the FR protocol. […] Cardiac injury due to I/R stress was assessed by measuring LDH release in the perfusates that were collected during 60 min of reperfusion. […] The sections were embedded in the TTC solution at 37° C. for 10 min, and area of infarct as a percent of the whole heart was quantified as described. […]

How did the “inhibition of serum-dependent necrosis (cell viability / cell death)” value (MEFs [1]) turn out when `CC(=O)N(O)CCCCCNC(=O)CCC(=O)N(O)CCCCCNC(=O)CCC(=O)N(O)CCCCCN` [DFO, Deferoxamine] was run?
Its value is “blocked”.

And the “inhibition of erastin-induced ferroptosis (PI staining, flow cytometry)” value (MEFs [2])?
The value was “inhibited”.

What about the “release of lactate dehydrogenase (LDH) during reperfusion” value [3] of the same compound?
The value was “significantly inhibited”.
